Test results: PMC6221296
Results are given in words; binding and its absence hold for the method and conditions named. Binding seen in cells or lysates may run through a third protein. Some binding calls cover weakened binding; strength is not graded here.

The chains behind the UniProt entries cited, without tags or fusion partners.
UniProt Q9CWR8: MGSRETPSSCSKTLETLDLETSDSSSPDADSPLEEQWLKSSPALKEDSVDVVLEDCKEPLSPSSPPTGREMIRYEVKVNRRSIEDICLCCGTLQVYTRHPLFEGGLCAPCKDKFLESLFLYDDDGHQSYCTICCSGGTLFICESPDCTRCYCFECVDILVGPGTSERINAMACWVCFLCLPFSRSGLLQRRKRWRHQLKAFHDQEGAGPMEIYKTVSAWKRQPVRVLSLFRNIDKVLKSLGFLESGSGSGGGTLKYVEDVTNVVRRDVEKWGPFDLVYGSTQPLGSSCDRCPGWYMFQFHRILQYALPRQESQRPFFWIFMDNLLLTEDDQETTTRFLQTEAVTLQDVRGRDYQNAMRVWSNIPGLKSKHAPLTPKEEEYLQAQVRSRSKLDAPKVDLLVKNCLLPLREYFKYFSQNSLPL
UniProt P13864: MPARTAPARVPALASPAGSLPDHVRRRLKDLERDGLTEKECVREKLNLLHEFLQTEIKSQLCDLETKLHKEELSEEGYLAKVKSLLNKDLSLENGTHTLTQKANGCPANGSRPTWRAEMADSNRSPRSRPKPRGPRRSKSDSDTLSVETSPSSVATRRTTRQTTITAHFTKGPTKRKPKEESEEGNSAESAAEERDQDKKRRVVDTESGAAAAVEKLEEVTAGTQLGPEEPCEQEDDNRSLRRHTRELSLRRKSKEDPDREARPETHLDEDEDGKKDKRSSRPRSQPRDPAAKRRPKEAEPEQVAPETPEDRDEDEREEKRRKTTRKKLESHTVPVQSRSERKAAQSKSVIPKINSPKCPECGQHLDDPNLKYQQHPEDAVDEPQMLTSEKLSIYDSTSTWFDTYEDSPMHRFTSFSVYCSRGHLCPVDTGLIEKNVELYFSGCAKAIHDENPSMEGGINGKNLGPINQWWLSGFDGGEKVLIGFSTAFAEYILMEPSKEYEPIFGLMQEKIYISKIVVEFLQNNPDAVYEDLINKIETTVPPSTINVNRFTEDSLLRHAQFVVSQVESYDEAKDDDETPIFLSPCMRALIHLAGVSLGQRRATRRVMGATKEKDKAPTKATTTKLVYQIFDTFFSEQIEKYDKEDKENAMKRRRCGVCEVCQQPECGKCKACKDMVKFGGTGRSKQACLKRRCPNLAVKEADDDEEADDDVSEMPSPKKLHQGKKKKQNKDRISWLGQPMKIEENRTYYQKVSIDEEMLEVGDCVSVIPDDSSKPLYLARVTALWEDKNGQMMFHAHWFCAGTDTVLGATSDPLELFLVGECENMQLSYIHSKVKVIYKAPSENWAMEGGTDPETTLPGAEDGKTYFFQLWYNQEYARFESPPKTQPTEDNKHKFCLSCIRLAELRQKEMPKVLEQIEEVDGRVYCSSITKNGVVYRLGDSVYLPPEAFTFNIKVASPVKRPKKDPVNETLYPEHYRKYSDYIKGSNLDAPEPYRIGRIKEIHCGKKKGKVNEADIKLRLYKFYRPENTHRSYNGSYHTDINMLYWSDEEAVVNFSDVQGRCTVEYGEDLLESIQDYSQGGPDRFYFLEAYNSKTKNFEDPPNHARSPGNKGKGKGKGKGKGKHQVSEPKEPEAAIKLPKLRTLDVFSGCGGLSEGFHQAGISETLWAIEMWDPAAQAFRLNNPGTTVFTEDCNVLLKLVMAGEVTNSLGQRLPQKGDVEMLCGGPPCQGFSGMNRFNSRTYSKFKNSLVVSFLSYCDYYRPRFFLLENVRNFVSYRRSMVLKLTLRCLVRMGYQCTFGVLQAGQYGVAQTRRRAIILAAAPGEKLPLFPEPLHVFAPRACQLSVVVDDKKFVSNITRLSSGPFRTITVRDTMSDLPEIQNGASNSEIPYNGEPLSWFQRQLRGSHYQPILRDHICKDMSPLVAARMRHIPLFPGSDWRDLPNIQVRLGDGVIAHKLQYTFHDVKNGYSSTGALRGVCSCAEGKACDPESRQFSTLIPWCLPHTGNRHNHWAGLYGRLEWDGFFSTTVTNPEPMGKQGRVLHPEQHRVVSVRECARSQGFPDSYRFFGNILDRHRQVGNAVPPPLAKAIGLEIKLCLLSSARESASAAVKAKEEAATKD
UniProt O09106: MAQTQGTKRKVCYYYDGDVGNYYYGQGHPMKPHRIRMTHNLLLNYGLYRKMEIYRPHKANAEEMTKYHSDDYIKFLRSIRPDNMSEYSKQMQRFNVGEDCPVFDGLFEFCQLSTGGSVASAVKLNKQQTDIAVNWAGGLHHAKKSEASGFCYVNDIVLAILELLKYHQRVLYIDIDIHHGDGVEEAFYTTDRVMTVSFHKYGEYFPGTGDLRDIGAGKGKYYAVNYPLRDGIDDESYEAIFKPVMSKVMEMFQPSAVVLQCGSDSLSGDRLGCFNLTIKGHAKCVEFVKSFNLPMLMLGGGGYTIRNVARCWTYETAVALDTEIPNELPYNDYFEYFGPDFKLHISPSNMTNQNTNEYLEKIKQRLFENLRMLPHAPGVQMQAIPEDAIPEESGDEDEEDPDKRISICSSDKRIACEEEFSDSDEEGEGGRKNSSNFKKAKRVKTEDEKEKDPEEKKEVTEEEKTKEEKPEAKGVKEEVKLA

Legend:
[1] = molecular target: MAX (mouse (endogenous in VV3 ESCs)) (UniProt P28574); experiment: co-IP; anti-MAX antibody (Santa Cruz sc-197x) cross-linked to Protein G Dynabeads; nuclear extract of VV3 ESCs in Buffer B (20 mM Hepes-NaOH pH 7.9, 350 mM NaCl, 1.5 mM MgCl2, 0.2 mM EDTA, 0.1% NP-40, 10% glycerol, 0.5 mM DTT), overnight at 4°C; elution with 0.1 M glycine pH 3.5; Western blotting; control IgG
[2] = molecular target: MAX (mouse (endogenous in VV3 ESCs)) (UniProt P28574); experiment: co-IP; VV3 ESC nuclear extract fractionated on heparin (A-D) and Q sepharose (I-IV) columns; fractions A-III, B-III, C-III, D-III incubated with anti-MAX antibody-bound Protein G Dynabeads for 12 h at 4°C with Benzonase nuclease; washes with 0.15 M NaCl, 0.1% NP-40, 50 mM HEPES pH 7.4; Western blotting; control IgG

binding [1] | binding [2] | Substance
binds | – | DNMT3B (from UniProt O88509 1-859) (enzyme)
binds | binds | DNMT3L (from UniProt Q9CWR8 1-421)
binds | – | DNMT1 (from UniProt P13864 1-1620) (enzyme)
binds | – | HDAC1 (from UniProt O09106 1-482) (enzyme)
